The numbers were not newly measured in US20150297661A1, “ANALGESIC COMPOSITIONS AND METHODS OF USE” (priority 2014, published 2015), which cites them from elsewhere.

The conditions of this data set: depending on the site of administration.

With `CCN(CC)CC(=O)Nc1c(C)cccc1C` [Lidocaine], the onset of anesthesia entry was “within a few minutes”.
